In patent publication US20250388687A1:
Substitutions are numbered along the chain they refer to. Results are given in words; binding and its absence hold for the method and conditions named. Some results given as binding are weak or reduced against the parent protein; the word gives no strength. Values belong to the binder of their own block, whether it stands above or below them.

The chains behind the UniProt entries cited, without tags or fusion partners. Where a name states a change or a piece, a line headed by the entry shows the natural chain unless it says otherwise. Residues count along the entry.
UniProt P19235, residues 25-250: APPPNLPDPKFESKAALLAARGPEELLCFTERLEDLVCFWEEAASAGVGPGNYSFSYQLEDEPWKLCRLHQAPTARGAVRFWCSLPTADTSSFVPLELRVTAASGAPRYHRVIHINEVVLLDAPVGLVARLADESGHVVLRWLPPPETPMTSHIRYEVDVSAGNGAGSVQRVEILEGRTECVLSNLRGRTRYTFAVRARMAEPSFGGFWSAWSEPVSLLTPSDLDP

Molecular target: recombinant hEPOR-Fc (Sino Biological, Cat #10707-H02H) (human) (UniProt P19235)
Assay: B cells sorted by staining with fluorescence labeled hEPOR-Fc, single cell sequencing

B1: clonotype 56 (antibody, V domains shown)
VH: EVQLVESGGDLVQPGGSLKLSCAASGFSFSGSTLHWVRQASGKGLEWIGHIRSKPNNYATLYGASVKGRFTISRDDSKNTAYLQMNSLKIEDTAVYYCNGVYGGSSYFFDYWGQGTLVTVSS
VL: QAVLTQPASLSASPGASASLTCTLRSGINVGTYRIYWYQQKPGSPPQYLLRYKSDSDKQQGSGVPSRFSGSKDASANAGILLISGLQSEDEADYYCMIWHSSAVVFGGGTKLTVL
- binding: binds

B2: clonotype 102 (antibody, V domains shown)
VH: EVQLVQSGAEVKKPGESLKISCKGSGYSFTSYWIGWVRQMSGKGLEWMGIIYPSDSDTRYSPSFQGQVTISADKSISTAYLQWSSLKASDTAMYYCARQINWGAIDYWGQGTLVTVSS
VL: QSALTQPASVSGSPGQSITISCTGTSSDVGGYNYVSWYQQHPGKAPKLMIYDVSKRPSGVSNRFSGSKSGNTASLTISGLQAEDEADYYCCSYAGSSTFVVFGGGTKLTVL
- binding: binds

B4: clonotype 103 (antibody, V domains shown)
VH: QVQLVQSGAEVKKPGASVKVSCKASGYTFTSYGISWVRQAPGQGLEWMGWISVYNGNTNYAQKLQGRVTMTTDTSTSTAYMELRSLRSDDTAVYYCARQITATRGFDYWGQGTLVTVSS
VL: B2 VL
- binding: binds

B5: clonotype 423 (antibody, V domains shown)
VH: QVQLVESGGGVVQPGRSLRLSCAASGFTFSNYGIHWVRQAPGKGLEWVAVIWYDGSNEYYVDSVKGRFIISRDNSKNTLYLQMNSLRAEDTALYYCALAVTGFDYWGQGTLVTVSS
VL: QSVLTQPPSVSEAPRQRVTISCSGSSSNIGNNAVNWYQQLPGKAPKLLIYYDDLLPSGVSDRFSGSKSGTSASLAISGLQSEDEADYYCAAWDDRLNGPVFGGGTKLTVL
- binding: binds

B6: clonotype 95 (antibody, V domains shown)
VH: EVQLVESGGGLVQPGGSLRLSCAASGFTFSSYSMNWVRQAPGKGLEWVSYISSSSSTIYYADSVKGRFTISRDNAKNSLYLQMNSLRDEDTAVYYCARDRYNFDYWGQGTLVTVSS
VL: QSALTQPRSVSGSPGQSVTISCTGTSSDVGGYNYVSWYQQHPGKAPKLMIYDVSKRPSGVPDRFSGSKSGNTASLTISGLQAEDEADYYCCSYAGSSWVFGGGTKLTVL
- binding: binds

B7: clonotype 400 (antibody, V domains shown)
VH: QVQLVQSGAEVKKPGASVKVSCKASGYTFTSYDINWVRQATGQGLEWMGWMNPNSGNTGYAQKFQGRVTMTRNTSISTAYMELSSLRSEDTAVYYCARVAFDIWGQGTMVTVSS
VL: B6 VL with R8A, V18I, D52E, K55N, P61S, D62N, C91S, A94T, G95S, W98T
- binding: binds

B8: clonotype 407 (antibody, V domains shown)
VH: EVQLVESGGGLVKPGGSLRLSCAASGFTFSNAWMSWVRQAPGKGLEWVGRIKSKSDGGTRDYAAPVKGRFTISRDDSKNTLYLQMNSLKTEDTAMFYCTTGGTHWGQGTLVTVSS
VL: SYELTQPPSVSVSPGQTARITCSADALPKQYAYWYQQKPGQAPVLVIYKDSERPSGIPERFSGSSSGTTVTLTISGVQAEDEADYYCQSADSSATWVFGGGTKLTVL
- binding: binds

B9: clonotype 409 (antibody, V domains shown)
VH: B8 VH with S55T, R60T, A64T, D75A, Y82F, N86S, M95V, F96Y, Y97F, H104N
VL: SYELTQPPSVSVSPGQTARITCSADALPKQYAYWYQQKPGQAPVVVIYKDSERPSGIPERFSGSSSGTTVTLTISGVQAEDEADYYCQSLDSSGTYWVFGGGTKLTVL
- binding: binds

B10: clonotype 397 (antibody, V domains shown)
VH: QVQLQESGPGLVKPSQTLSLTCTVSGGSISSGGYYWSWIRQHPGKGLEWIGYIYYIGITYYNPSLKSRVTISVDTSKNQFSLKLSSVTAADTAVYYCARAFDYWGQGTLVTVSS
VL: SYVLTQPPSVSVPPGKTARITCGGNNVGSKSVHWYQQKPGQAPVLVIYYDTDRPSGIPERFSGSNSGNTATLSISRVEAGDEADYYCQVWDSRSDHVVFGGGTKLTVL
- binding: binds

B12: clonotype 109 (antibody, V domains shown)
VH: QVQLQQSGPGLVKPSQTLSLTCAISGDSVSSNSAAWSWIRQSPSRGLEWLGRTYYRSKWYNDYAVSVKSRITINPDTSKNQFSLQLNSVTPEDTAVYYCARKWELRDTFDIWGQGTMVTVSS
VL: QSALTQPASVSGSPGQSITISCTGTSSDVGGYNYVSWYQQHPGKAPKLMIYDVSKRPSGVSNRFSGSKSGNTASLTISGLQAEDEADYYCCSYAGSSTLGIDWVFGGGTKLTVL
- binding: binds

B13: clonotype 424 (antibody, V domains shown)
VH: QVQLVESGGGLVKPGGSLRLSCAASGFTFSDYYMSWIRQAPGKGLEWVSYISSSGSTIYYPDSVKGRFTISRDNAKNSLYLQMNSLRAEDTAVYYCARDGAAFDIWGQGTMVTVSS
VL: QSALTQPASVSGSPGQSITISCTGTSSDVGGYNYVSWYQQHPGKAPKLMIYDVSKRPSGVSNRFSGSKSGNTASLTISGLQAEDETDYYCCSYAGSSTLVFGGGTKLTVL
- binding: binds

B16: clonotype 69 (antibody, V domains shown)
VH: QVQLQESGPGLVKPSGTLSLTCAVSGGSISSSNWWSWVRQPPGKGLEWIGEIYHSGSTNYNPSLKSRVTISVDKSKNQFSLKLSSVTAADTAVYYCARRGAARPFDYWGQGTLVTVSS
VL: QAVLTQPASLSASPGASASLTCTLRSGINVGTYRIYWYQQKPGSPPQYLLRYKSDSDKQQGSGVPSRFSGSKDASANAGILLISGLQSEDEADYYCMIWHSSAYVVFGGGTKLTVL
- binding: binds

B17: clonotype 110 (antibody, V domains shown)
VH: QVQLQQWGAGLLKPSETLSLTCAVYGGSFSGYYWSWIRQPPGKGLEWIGEINHSGSTNYNPSLKSRVTISVDTSKNQFSLKLSSVTAADTAVYYCASYGDFFDYWGQGTLVTVSS
VL: LPVLTQPPSASALLGASIKLTCTLSSEHSTYTIEWYQQRPGRSPQYIMKVKSDGSHSKGDGIPDRFMGSSSGADRYLTFSNLQSDDEAEYHCGESHTIDGQVGVVFGGGTKLTVL
- binding: binds

B18: clonotype 111 (antibody, V domains shown)
VH: EVQLVESGGGLVKPGGSLRLSCAASGFTFSSYSMNWVRQAPGKGLEWVSSISSSSSYIYYADSVKGRFTISRDNAKNSLYLQMNSLRAEDTAVYYCARETELTVMDVWGKGTTVTVSS
VL: B17 VL with V104W
- binding: binds

B23: clonotype 426 (antibody, V domains shown)
VH: QIQLVQSGAEMKKPGASVKVSCKASGYTFTNYGISWVRQAPGQGLEWMGWINTYNDKTNFALKVQGRVTMTTDTSTSTAYMELRSLRSDDTAVYYCARDRGYSFDYWGQGTLVTVSS
VL: SYELTQPPSVSVSPGQTASITCSGDKLGDKHACWYQQKPGQSPMLVIYQDSKRPSGIPERFSGSNSGNTATLTISGTQPMDEADYYCQAWDSSTFGGGTKLTVL
- binding: binds

Other lines, results leading:

- binding: binds
B3: clonotype 451 (antibody, V domains shown)
VH: B2 VH with S41P, S54G, I100D, N101S, W102N, G103Y, A104V, I105F
VL: B10 VL with P13A, V27I, T51S, S73T, R93S

- binding: binds
B11: clonotype 434 (antibody, V domains shown)
VH: QVQLIQSGTEVKKPGASVKVSCMASRYTFTSYYIHWVRQAPGQGLEWMGIINPSGGTTGYAQKFQGRVTMTRDTSTSTVYMELYSLRSEDTAVYYCARGGWGTMDVWGKGTTVTVSS
VL: B10 VL with P13A, V27I, T51S, S73T, R93S

- binding: binds
B14: clonotype 455 (antibody, V domains shown)
VH: EVQLVESGGGLVQPGGSLRLSCAASGFTFSSYWMHWVRQAPGKGLVWVSRINSDGSSTSYADSVKGRFTISRDNAKNTLYLQMNSLRAEDTAVYYCARDEQLVPFDIWGQGTMVTVSS
VL: B13 VL with T86A

- binding: binds
B15: clonotype 427 (antibody, V domains shown)
VH: QVQLVQSGAEVKKPGASVKVSCKASGYTFTSYGISWVRQAPGQGLEWMGWISAYNGNTNYAQRLQGRVTMTTDTSTSTAYMELRSLISDDTAVYYCARNHYYYLDVWGKGTTVTVSS
VL: SYELTQPSSVSVSPGQTARITCSGDVLAKKYARWFQQKPGQAPVLVIYKDSERPSGIPERFSGSSSGTTVTLTISGAQVEDEADYYCYSAADNNRVFGGGTKLTVL

- binding: binds
B19: clonotype 436 (antibody, V domains shown)
VH: EVQLVESGGGLIQPGGSLRLSCAASGLTVSTNYMSWVRQAPGKGLEWVSVLYSGGGTYYADSVKGRFTISRDNSKNTLCLQMNSLRAEDTAMYYCARDNWDSYFDYWGQGTLVTVSS
VL: QTVVTQEPSLTVSPGGTVTLTCASSTGAVTSGYYPNWFQQKPGQAPRALIYSTSNKHSWTPARFSGSLLGGKAALTLSGVQPEDEAEYYCLLYYGGARVFGGGTKLTVL

- binding: binds
B20: clonotype 431 (antibody, V domains shown)
VH: EVQLVESGGGLVKPGGSLRLSCAASGFTFSSYSMNWVRQAPGKGLEWVSSISSSSSYIYYADSVKGRFTISRDNAKNSLYLQMNSLRAEDTAVYYCARDLISSFDYWGQGTLVTVSS
VL: SSELTQDPAVSVALGQTVRITCQGDRLRSYYASWYQQKPGQAPVLVIYGKNNRPSGIPDRFSGSSSGNTASLTITGAQAEDEADYHCNSRDSSGNHLVFGGGTKLTVL

- binding: binds
B21: clonotype 445 (antibody, V domains shown)
VH: B18 VH with E99D, T100R, E101G, L102A, V104G, M105F, V107Y, K110Q, T113L
VL: B20 VL with R26S, H86Y, L97W

- binding: binds
B22: clonotype 432 (antibody, V domains shown)
VH: EVQLVESGGGLVQPGGSLRLSCAASGFTFSSYWMSWVRQAPGKGLEWVANIKQDGSEKYYVDSVKGRFTISRDNAKNSLYLQMNSLRAEDTAVYYCARRIVGAFDYWGQGTLVTVSS
VL: B20 VL with R26S, H86Y
